Non-standard residues stand in square brackets, D forms with d. aIle = CC[C@@H](C)[C@H](N)C(=O)O
Assay: general procedure: Fmoc solid-phase peptide synthesis; Fmoc-capped polystyrene rink amide MBHA resin (100-200 mesh); HCTU/NMM
Details: whole synthesis, scale of the general procedure 0.05-0.15 mmol

Substance	isolated yield [%]
Ac-Val-Gln-Ile-Val-aTyr-Lys-NH2	38
Ac-aVal-Gln-aIle-Val-Tyr-Lys-NH2 (VQIVYK; N-acetyl, C-amide, aza-amino acids; MOD_RES (1)..(1) N-term acetylation; MOD_RES (1)..(1) N-amination of the amino acid amide moiety; MOD_RES (3)..(3) N-amination of the amino acid amide moiety; MOD_RES (6)..(6) C-term amidation)	52
Ac-aVal-Gln-Ile-Val-Tyr-Lys-NH2 (VQIVYK; N-acetyl, C-amide, aza-amino acids; MOD_RES (1)..(1) N-term acetylation; MOD_RES (1)..(1) N-amination of the amino acid amide moiety; MOD_RES (6)..(6) C-term amidation)	88
Ac-VQ[aIle]VYK-NH2	55
Ac-aVal-Gln-aIle-Val-aTyr-Lys-NH2 (VQIVYQ; N-acetyl, C-amide, aza-amino acids; MOD_RES (1)..(1) N-term acetylation; MOD_RES (1)..(1) N-amination of the amino acid amide moiety; MOD_RES (3)..(3) N-amination of the amino acid amide moiety; MOD_RES (5)..(5) N-amination of the amino acid amide moiety; MOD_RES (6)..(6) C-term amidation)	28
Ac-Val-Gln-Ile-Val-Tyr-aLys-NH2 (VQIVYK; N-acetyl, C-amide, aza-amino acids; MOD_RES (1)..(1) N-term acetylation; MOD_RES (6)..(6) N-amination of the amino acid amide moiety; MOD_RES (6)..(6) C-term amidation)	99
Ac-aVal-Gln-Ile-Val-aTyr-Lys-NH2	58
Ac-Val-Gln-Ile-aVal-Tyr-aLys-NH2	42
Ac-VQ[aIle]INK-NH2	45
Ac-Val-Gln-Ile-aVal-Tyr-Lys-NH2	88
Ac-VQI[aIle]NK-NH2	75
Ac-Val-Gln-aIle-Val-aTyr-Lys-NH2	44
Ac-aVal-Gln-Ile-Ile-Asn-Lys-NH2	81
Ac-aVal-Gln-aIle-Ile-Asn-Lys-NH2 (VQIINK; N-acetyl, C-amide, non-natural residues; MOD_RES (1)..(1) N-term acetylation; MOD_RES (1)..(1) N-amination of the amino acid amide moiety; MOD_RES (3)..(3) N-amination of the amino acid amide moiety; MOD_RES (6)..(6) C-term amidation)	81

— US20240116984A1 (University of Notre Dame du Lac, priority 2021, published 2024)
